Reference: PubChem BioAssay AID1471 (National Center for Advancing Translational Sciences (NCATS), 2008)
Screen size: about 230,000 compounds; about 310 (0.13%) were called active. Inconclusive means that the source gave no clear call. Such entries were picked first, then a sample of the others. Calls follow the shape of the dose curve; as a rule, active = well fitted activation curve with a large enough effect; inconclusive = small, poorly fitted or top-dose-only effect; inactive = no such curve, though single readings can be large or run the other way. Potencies beside an inconclusive call are fits to weak or partial responses and may not hold up.

Experiment: qHTS Multiplex Assay to Identify Dual Action Probes in a Cell Model of Huntington: Cytoprotection (ATP); also: nearly all actives have a fitted effect of over 45% in size;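 as to cytoprotection (ATP increase): toxic huntingtin expression switched on by the ecdysone agonist tebufenozide; % of control where 0% means no effect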
Conditions: PC12 HTT-Q103 induced, ATP luminescence, 40 h; cytoprotection (ATP increase): at 56.4 µM (top of the series) unless noted
Summary of the method: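 Rat PC12, Q103 Htt exon1-GFP fusion, ecdysone promoter; tebufenozide inducer 100 nM final; compound titration; qHTS, 1500 cells/well; ATPlite luminescent read.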
Potency is read from the fitted curve at half-maximal effect.

Row | SMILES | Potency | cytoprotection (ATP increase)
1 | CN1CCc2cc(Cl)c(O)cc2[C@@H](c2ccccc2)C1 | inconclusive: 0.398 µM [activator, partial curve] | 
2 | Cc1ncc(CO)c(CO)c1O | inconclusive: 0.251 µM [activator, full curve, poor fit] | 
3 | O=c1c2cc(NC(=S)NCCCN3CCC(Cc4ccccc4)CC3)ccc2nc2n1CCCCC2 | inactive | 
4 | COc1ccc(-n2c(Cc3cccn3C)nnc2SCC(=O)N2CCCc3ccccc32)cc1 | inconclusive: 6.31 µM [activator, partial curve] | 
5 | CCCc1n[nH]c2c1/C(=N/O)CC(c1ccccc1)C2 (stereo unspecified) |  | inactive: -10.5% [at 10 µM]
6 | CS(=O)(=O)N1CCC[C@@]2(CCN(C(=O)Nc3ccccc3)C2)C1 | inactive | 
7 | CC(=O)Nc1ccc(N(C(=O)Cc2c[nH]c3ccccc23)C(C(=O)NC2CCCCC2)c2ccco2)cc1 (stereo unspecified) | inconclusive: 5.62 µM [activator, single point] | 
8 | Cc1ccc(C(NC(=O)NCCCN2CCOCC2)=C(Cl)Cl)cc1F | inconclusive: 35.5 µM [activator, single point] | 
9 | Cc1ccccc1N1C(=O)c2cc(S(N)(=O)=O)c(Cl)cc2N[C@H]1C | inconclusive: 0.251 µM [activator, full curve] | 
10 | O=CN1CCN(C(C(=O)NC2CCCCC2)c2cc3c(cc2[N+](=O)[O-])OCO3)CC1 (stereo unspecified) | inactive | 
11 | CCCC(=O)Nc1ccc(Cl)c(NC(=O)c2cccnc2)c1 |  | inactive: -28.9% [at 10 µM]
12 | Cc1ccc(S(=O)(=O)N[C@H]2COC(=O)CC=C[C@@H](C)[C@H]3C=C[C@H](O)[C@@H](COC(=O)CC=C[C@H]2C)O3)cc1 | inconclusive: 0.112 µM [activator, single point] | 
13 | CCOC(=O)Cn1nc(C)n(-c2ccc(C)cc2)c1=O | inconclusive: 0.1 µM [activator, full curve, poor fit] | 
14 | Fc1ccc(NC(=S)N/N=C/c2ccc(F)c(F)c2)cc1 | inconclusive: 5.62 µM [activator, single point] | 
15 | COc1ncc2nc(-c3ccccc3)c(=O)n(CCc3ccccc3)c2n1 | inconclusive: 39.8 µM [activator, single point] | 
16 | Nc1nnnn1/N=C/C(Br)=C/c1ccccc1 | inconclusive: 31.6 µM [activator, single point] | 
17 | O=C(CSc1c2c(nc3ccccc13)CCCC2)NCc1ccco1 | inconclusive: 14.1 µM [activator, partial curve] | 
18 | CCOC(=O)N1CCN(CC(=O)N2c3ccccc3CC2C)CC1 (stereo unspecified) | inactive | 
19 | O=C1NCCCC1C(=O)N/N=C/c1cccc(O)c1 (stereo unspecified) | inconclusive: 0.0891 µM [activator, full curve, poor fit] | 
20 | O=C(COc1ccc(Br)cc1)N1CCN(c2ccc([N+](=O)[O-])c(N3CCCCC3)c2)CC1 | inconclusive: 0.891 µM [activator, single point] | 
21 | COc1ccc(Cl)cc1NC(=O)CN(C)CC(=O)NC(C)c1ccccc1 (stereo unspecified) | inactive | 
22 | Cc1ccc(CNS(=O)(=O)c2cccc3nsnc23)cc1 | inconclusive: 35.5 µM [activator, single point] | 

Row | SMILES | Potency | cytoprotection (ATP increase)
23 | CN1CCN(C(=S)c2cn(Cc3ccccc3F)c3ccccc23)CC1 | inconclusive: 1.12 µM [activator, single point] | 
24 | CCN1C(C)=C(C(=O)OC)C(c2ccccc2)N2C(=O)[C@](O)(C(=O)OC)C(c3ccccc3)C(C(C)=O)=C12 (stereo partly specified) | inconclusive: 0.112 µM [activator, full curve, poor fit] | 
25 | COCC(=O)O | inconclusive: 7.94 µM [activator, full curve] | 
26 | COc1ccc(N2CCN(C(=O)c3ccc(Br)cc3)CC2)c([N+](=O)[O-])c1 | inconclusive: 0.316 µM [activator, full curve] | 
27 | CCCSc1nc2c(cnn2-c2ccc(Cl)cc2)c(=O)[nH]1 | inconclusive: 3.55 µM [activator, partial curve] | 
28 | O=C1C=C(c2ccccc2)OC(c2ccccc2)O1 (stereo unspecified) | inconclusive: 5.62 µM [activator, single point] | 
29 | CCOc1ccc(C(C)NC(=S)NCc2ccc(Cl)cc2)cc1 (stereo unspecified) | inconclusive: 0.316 µM [activator, full curve, poor fit] | 
30 | N#Cc1ccc(CS(=O)(=O)c2nc3ccccc3s2)cc1 | inconclusive: 6.31 µM [activator, partial curve] | 
31 | O=C(NN=C1CCCCCCC1)c1ccc(F)cc1 | inactive | 
32 | CCOc1ccc(N2C(=O)CC(N3CCc4ccccc43)C2=O)cc1 (stereo unspecified) | inactive | 
33 | CC(=O)c1ccc(N2CCN(CC(=O)N(CC(C)C)c3c(N)n(CC(C)C)c(=O)[nH]c3=O)CC2)cc1 | inconclusive: 0.891 µM [activator, single point] | 
34 | C/C(CC(C)(C)c1ccccc1)=N\NS(=O)(=O)c1ccccc1 | inconclusive: 0.631 µM [activator, full curve, poor fit] | 
35 | CCOc1ccccc1NC(=O)C1CC(=O)n2ncnc2N1 (stereo unspecified) | inconclusive: 5.62 µM [activator, single point] | 
36 | CCN(CC)C(=O)c1cccc(C)c1 | inconclusive: 2.24 µM [activator, single point] | 
37 | CC1(C)S[C@@H]2[C@H](NC(=O)[C@@H](N)c3ccc(O)cc3)C(=O)N2[C@H]1C(=O)O | inconclusive: 3.16 µM [activator, single point] | 
38 | CCOc1cccc(CNCCO)c1OCc1ccc(Cl)cc1Cl |  | inactive: 12.1% [at 10 µM]
39 | O=C(c1cccs1)C1CCCN(Cc2nc(Cc3ccccc3F)no2)C1 (stereo unspecified) |  | inactive: 20.5% [at 10 µM]
40 | C[C@]12CC[C@@H]3c4ccc(O)cc4CC[C@H]3[C@@H]1CC[C@@H]2O | inconclusive: 1.78 µM [activator, single point] | 
41 | CCS(=O)(=O)N1CCCC(C(=O)NC2CCCCC2C)C1 (stereo unspecified) | inactive | 
42 | COc1ccc(Cc2nnc(SCC(=O)N3CCCC3)o2)cc1 | inconclusive: 5.62 µM [activator, single point] | 
43 | Cc1cccc(N(C(=O)c2ccc(CN3CCOCC3)o2)C(C(=O)NC(C)(C)C)c2ccc(F)cc2)c1 (stereo unspecified) | inconclusive: 3.16 µM [activator, partial curve] | 
44 | NC(Cc1cc(I)c(Oc2cc(I)c(O)c(I)c2)c(I)c1)C(=O)O (stereo unspecified) | inactive | 

A draw from above in order of length of the SMILES, descending:
Row | SMILES | Potency | cytoprotection (ATP increase)
33 | CC(=O)c1ccc(N2CCN(CC(=O)N(CC(C)C)c3c(N)n(CC(C)C)c(=O)[nH]c3=O)CC2)cc1 | inconclusive: 0.891 µM [activator, single point] | 
20 | O=C(COc1ccc(Br)cc1)N1CCN(c2ccc([N+](=O)[O-])c(N3CCCCC3)c2)CC1 | inconclusive: 0.891 µM [activator, single point] | 
10 | O=CN1CCN(C(C(=O)NC2CCCCC2)c2cc3c(cc2[N+](=O)[O-])OCO3)CC1 (stereo unspecified) | inactive | 
9 | Cc1ccccc1N1C(=O)c2cc(S(N)(=O)=O)c(Cl)cc2N[C@H]1C | inconclusive: 0.251 µM [activator, full curve] | 
6 | CS(=O)(=O)N1CCC[C@@]2(CCN(C(=O)Nc3ccccc3)C2)C1 | inactive | 
44 | NC(Cc1cc(I)c(Oc2cc(I)c(O)c(I)c2)c(I)c1)C(=O)O (stereo unspecified) | inactive | 
21 | COc1ccc(Cl)cc1NC(=O)CN(C)CC(=O)NC(C)c1ccccc1 (stereo unspecified) | inactive | 
39 | O=C(c1cccs1)C1CCCN(Cc2nc(Cc3ccccc3F)no2)C1 (stereo unspecified) |  | inactive: 20.5% [at 10 µM]
32 | CCOc1ccc(N2C(=O)CC(N3CCc4ccccc43)C2=O)cc1 (stereo unspecified) | inactive | 
27 | CCCSc1nc2c(cnn2-c2ccc(Cl)cc2)c(=O)[nH]1 | inconclusive: 3.55 µM [activator, partial curve] | 
17 | O=C(CSc1c2c(nc3ccccc13)CCCC2)NCc1ccco1 | inconclusive: 14.1 µM [activator, partial curve] | 
14 | Fc1ccc(NC(=S)N/N=C/c2ccc(F)c(F)c2)cc1 | inconclusive: 5.62 µM [activator, single point] | 
5 | CCCc1n[nH]c2c1/C(=N/O)CC(c1ccccc1)C2 (stereo unspecified) |  | inactive: -10.5% [at 10 µM]
22 | Cc1ccc(CNS(=O)(=O)c2cccc3nsnc23)cc1 | inconclusive: 35.5 µM [activator, single point] | 
35 | CCOc1ccccc1NC(=O)C1CC(=O)n2ncnc2N1 (stereo unspecified) | inconclusive: 5.62 µM [activator, single point] | 
19 | O=C1NCCCC1C(=O)N/N=C/c1cccc(O)c1 (stereo unspecified) | inconclusive: 0.0891 µM [activator, full curve, poor fit] | 
31 | O=C(NN=C1CCCCCCC1)c1ccc(F)cc1 | inactive | 
36 | CCN(CC)C(=O)c1cccc(C)c1 | inconclusive: 2.24 µM [activator, single point] | 
25 | COCC(=O)O | inconclusive: 7.94 µM [activator, full curve] | 

2 compounds picked at random from the list so far, as already listed:
Row | SMILES | Potency | cytoprotection (ATP increase)
34 | C/C(CC(C)(C)c1ccccc1)=N\NS(=O)(=O)c1ccccc1 | inconclusive: 0.631 µM [activator, full curve, poor fit] | 
36 | CCN(CC)C(=O)c1cccc(C)c1 | inconclusive: 2.24 µM [activator, single point] | 

Further entries follow:

Row | SMILES | Potency | cytoprotection (ATP increase)
45 | COc1ccc(/C=C2\C(=O)N(c3c(Cl)cc(Cl)cc3Cl)N=C2NC(=O)c2cccc([N+](=O)[O-])c2)cc1 |  | inactive: 27% [at 10 µM]
46 | CCN1C(=O)[C@@H]2[C@H](C1=O)[C@@H]1C[C@H]3C(=O)N(CC)C(=O)[C@H]3[C@@H]3C1=C(C(=O)N1C(=O)O/C(=N\CC4CC4)[C@]31C)[C@@H]2C | inactive | 
47 | Cc1nc2ccccc2c(-c2ccccc2)c1CC(=O)O | inconclusive: 5.01 µM [activator, single point] | 
48 | CN(C)N1C(N)=C(C#N)C(c2cccs2)C2=C1CC(C)(C)CC2=O (stereo unspecified) | inconclusive: 35.5 µM [activator, single point] | 
49 | COc1ccc(C)cc1NC(=O)CN1CCN(S(=O)(=O)c2ccc(Br)cc2)CC1 | inactive | 
50 | COc1ccc(C(=O)NNC(=S)NC(=O)c2cc(-c3ccccc3)nc3ccccc23)cc1 | inconclusive: 35.5 µM [activator, single point] | 
51 | O=C(c1cccc(F)c1)N1CCN(c2cc(N3CCCCC3)c(F)cc2[N+](=O)[O-])CC1 | inconclusive: 1.26 µM [activator, single point] | 
52 | O=C(Nc1ccccc1)OCc1cnc(Cl)s1 | inconclusive: 3.55 µM [activator, partial curve] | 
53 | CN(C)c1ncc2nc(-c3ccc(F)cc3)c(=O)n(C[C@H]3CCCO3)c2n1 | inconclusive: 0.0071 µM [activator, full curve, poor fit] | 
54 | CCOC(=O)CC(=O)CSc1[nH]c(=O)cc(C)c1C#N | inactive | 
55 | CC[N+](C)(CC)CC(O)COCC1COc2ccccc2O1 (stereo unspecified) |  | inactive: 1.94% [at 10 µM]
56 | O=C(Nc1ccccc1)Nc1cc(OCC(F)(F)F)cc(OCC(F)(F)F)c1 |  | inactive: -11.8% [at 10 µM]
57 | COC(=O)[C@@]1(Cc2ccccc2)[C@@H]2[C@@H](CC(=O)[C@H]2CC(=O)C(=O)N(C)C)CN1C(=O)c1ccccc1 | inconclusive: 31.6 µM [activator, single point] | 
58 | COc1ccc(C(=O)N2CCC3(CC2)CN(Cc2ccc(C#N)cc2)C3)cc1 | inconclusive: 0.0063 µM [activator, full curve, poor fit] | 
59 | Nc1ccccc1S[C@@H](C[N+](=O)[O-])c1ccc2c(c1)OCO2 |  | inactive: 4.49% [at 10 µM]
60 | CC(C)(C)NC(=O)CN(C(=O)C1CSC(=O)C1)c1ccccc1F (stereo unspecified) | inactive | 
61 | c1cncc(-c2nc(NCCCn3ccnc3)c3ccccc3n2)c1 | inconclusive: 2.82 µM [activator, partial curve] | 
62 | CCOCCCNc1ncnc2c1[nH]c1ccccc12 | inactive | 
63 | O=C(NCc1ccc2c(c1)OCO2)C1CC(c2cccc(Br)c2)=NO1 (stereo unspecified) | inconclusive: 1.26 µM [activator, single point] | 
64 | Cc1noc(C)c1C(=O)N1CCN(Cc2ccccc2)CC1 | inactive | 
65 | CC1=C(C(=O)OCC2CCCO2)C(c2coc3ccc(C)cc3c2=O)C2=C(CCCC2=O)N1 (stereo unspecified) | inconclusive: 1.12 µM [activator, partial curve, poor fit] | 
66 | C[C@H]1OC(=O)CC[C@@H]2[C@]1(C)CCC1[C@@]2(C)CC[C@@]2(C)C3CC(C)(C)CC[C@]3(CO)CC[C@]12C (stereo partly specified) | inconclusive: 3.55 µM [activator, single point] | 
